Results as given in the supplement of paper PMC10849652.
The list shows a part of the results.

Protein sequences, listed by entry. Tags and fused reporters are not part of them. Lines headed by an entry give the natural chain unless they say otherwise; changes in a name come on top.
UniProt Q9P0T7: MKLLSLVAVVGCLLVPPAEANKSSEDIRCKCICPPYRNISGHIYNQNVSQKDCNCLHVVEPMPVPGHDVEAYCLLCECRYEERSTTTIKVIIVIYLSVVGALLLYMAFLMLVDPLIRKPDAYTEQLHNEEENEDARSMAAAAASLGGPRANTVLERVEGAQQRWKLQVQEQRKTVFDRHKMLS
UniProt O94842: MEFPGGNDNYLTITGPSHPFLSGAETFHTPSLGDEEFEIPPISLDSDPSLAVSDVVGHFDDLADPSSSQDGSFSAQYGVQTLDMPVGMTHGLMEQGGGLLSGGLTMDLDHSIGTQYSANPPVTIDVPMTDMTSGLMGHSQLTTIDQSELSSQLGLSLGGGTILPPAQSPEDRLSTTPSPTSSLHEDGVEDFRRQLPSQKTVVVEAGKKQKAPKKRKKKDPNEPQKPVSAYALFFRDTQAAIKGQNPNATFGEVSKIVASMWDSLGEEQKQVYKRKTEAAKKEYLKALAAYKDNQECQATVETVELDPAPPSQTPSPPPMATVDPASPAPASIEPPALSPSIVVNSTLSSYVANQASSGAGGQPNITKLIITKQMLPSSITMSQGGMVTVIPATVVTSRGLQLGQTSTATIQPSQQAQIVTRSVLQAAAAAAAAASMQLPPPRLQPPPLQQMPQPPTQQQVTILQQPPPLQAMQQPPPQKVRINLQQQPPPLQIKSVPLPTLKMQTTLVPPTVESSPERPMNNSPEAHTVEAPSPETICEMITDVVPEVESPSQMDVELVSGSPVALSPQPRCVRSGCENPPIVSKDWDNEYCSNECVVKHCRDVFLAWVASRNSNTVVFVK
UniProt P51580: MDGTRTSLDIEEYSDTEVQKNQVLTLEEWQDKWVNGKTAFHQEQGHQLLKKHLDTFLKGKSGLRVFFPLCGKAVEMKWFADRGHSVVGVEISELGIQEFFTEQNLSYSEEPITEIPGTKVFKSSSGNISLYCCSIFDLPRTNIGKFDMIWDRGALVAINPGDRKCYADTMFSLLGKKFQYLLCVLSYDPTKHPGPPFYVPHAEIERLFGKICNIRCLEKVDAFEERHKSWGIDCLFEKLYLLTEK
UniProt P29144: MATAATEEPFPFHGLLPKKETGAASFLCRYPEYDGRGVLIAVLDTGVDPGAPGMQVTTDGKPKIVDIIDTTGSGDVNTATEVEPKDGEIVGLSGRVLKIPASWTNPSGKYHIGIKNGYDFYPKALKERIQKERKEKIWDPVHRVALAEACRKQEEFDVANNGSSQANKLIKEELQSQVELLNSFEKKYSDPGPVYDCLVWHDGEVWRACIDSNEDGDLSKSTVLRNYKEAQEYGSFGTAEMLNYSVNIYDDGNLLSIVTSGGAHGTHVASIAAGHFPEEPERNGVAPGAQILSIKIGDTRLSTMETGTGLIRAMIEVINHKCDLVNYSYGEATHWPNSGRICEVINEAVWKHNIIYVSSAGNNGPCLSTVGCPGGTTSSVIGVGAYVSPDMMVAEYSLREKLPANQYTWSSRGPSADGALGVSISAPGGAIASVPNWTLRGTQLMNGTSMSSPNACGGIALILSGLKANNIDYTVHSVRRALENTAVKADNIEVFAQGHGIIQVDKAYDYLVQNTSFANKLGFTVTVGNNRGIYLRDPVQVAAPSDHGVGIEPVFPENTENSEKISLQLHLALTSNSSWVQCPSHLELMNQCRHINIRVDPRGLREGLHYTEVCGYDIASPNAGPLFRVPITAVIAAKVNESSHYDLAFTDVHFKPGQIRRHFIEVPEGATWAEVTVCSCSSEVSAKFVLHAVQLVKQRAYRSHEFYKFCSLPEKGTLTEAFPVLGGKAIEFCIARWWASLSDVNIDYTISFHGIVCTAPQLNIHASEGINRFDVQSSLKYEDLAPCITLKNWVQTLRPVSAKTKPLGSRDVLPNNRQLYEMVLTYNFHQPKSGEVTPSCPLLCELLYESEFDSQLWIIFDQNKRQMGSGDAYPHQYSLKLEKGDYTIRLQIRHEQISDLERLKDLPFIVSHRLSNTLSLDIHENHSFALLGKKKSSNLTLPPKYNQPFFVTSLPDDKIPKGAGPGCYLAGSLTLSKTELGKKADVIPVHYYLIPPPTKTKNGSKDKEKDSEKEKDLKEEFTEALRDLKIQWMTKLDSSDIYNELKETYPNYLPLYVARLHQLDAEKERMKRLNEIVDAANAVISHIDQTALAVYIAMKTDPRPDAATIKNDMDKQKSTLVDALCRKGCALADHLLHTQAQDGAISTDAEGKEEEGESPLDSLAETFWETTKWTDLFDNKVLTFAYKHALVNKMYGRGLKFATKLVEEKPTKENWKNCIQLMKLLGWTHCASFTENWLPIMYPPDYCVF
UniProt Q9H3S4: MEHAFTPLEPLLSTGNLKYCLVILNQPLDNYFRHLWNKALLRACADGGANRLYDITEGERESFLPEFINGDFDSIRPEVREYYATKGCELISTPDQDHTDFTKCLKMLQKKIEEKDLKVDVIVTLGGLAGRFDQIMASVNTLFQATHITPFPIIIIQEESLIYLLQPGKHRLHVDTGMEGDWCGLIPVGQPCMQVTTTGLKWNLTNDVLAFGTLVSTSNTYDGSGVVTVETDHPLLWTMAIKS
UniProt Q15628: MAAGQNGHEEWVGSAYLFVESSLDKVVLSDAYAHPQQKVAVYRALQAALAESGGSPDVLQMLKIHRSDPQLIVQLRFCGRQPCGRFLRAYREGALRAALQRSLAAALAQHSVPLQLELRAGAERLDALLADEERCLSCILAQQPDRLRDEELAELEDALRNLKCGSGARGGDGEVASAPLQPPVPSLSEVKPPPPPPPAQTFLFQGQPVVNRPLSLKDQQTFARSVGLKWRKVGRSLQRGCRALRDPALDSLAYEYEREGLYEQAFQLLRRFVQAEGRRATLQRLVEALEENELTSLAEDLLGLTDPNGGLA
UniProt Q9NYL9: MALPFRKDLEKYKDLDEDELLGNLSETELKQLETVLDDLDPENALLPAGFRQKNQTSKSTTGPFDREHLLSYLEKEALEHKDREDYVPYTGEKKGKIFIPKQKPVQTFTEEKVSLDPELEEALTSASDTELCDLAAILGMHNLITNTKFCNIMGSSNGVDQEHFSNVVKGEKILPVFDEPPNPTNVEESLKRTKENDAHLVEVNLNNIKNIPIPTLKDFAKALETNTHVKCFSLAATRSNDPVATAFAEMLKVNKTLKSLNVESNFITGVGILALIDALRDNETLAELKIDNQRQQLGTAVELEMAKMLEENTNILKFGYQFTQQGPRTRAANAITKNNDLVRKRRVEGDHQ
UniProt P28289: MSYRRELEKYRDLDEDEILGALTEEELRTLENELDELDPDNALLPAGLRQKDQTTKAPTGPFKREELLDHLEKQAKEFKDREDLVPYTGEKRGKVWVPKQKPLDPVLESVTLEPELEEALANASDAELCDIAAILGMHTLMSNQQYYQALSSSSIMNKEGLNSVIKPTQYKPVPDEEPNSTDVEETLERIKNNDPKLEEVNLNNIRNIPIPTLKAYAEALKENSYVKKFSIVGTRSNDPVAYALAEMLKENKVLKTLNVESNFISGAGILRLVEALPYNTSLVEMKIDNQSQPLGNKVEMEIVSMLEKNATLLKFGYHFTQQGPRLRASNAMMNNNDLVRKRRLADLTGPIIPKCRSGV
UniProt Q13595: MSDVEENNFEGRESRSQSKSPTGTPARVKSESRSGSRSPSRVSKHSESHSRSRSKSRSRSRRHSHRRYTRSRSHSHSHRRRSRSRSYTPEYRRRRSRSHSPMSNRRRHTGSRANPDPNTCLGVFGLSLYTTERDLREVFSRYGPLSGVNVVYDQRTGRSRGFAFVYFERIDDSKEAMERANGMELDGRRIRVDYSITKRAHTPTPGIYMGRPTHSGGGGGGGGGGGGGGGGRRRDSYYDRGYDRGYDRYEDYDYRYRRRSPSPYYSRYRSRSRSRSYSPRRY
UniProt Q9BTV4: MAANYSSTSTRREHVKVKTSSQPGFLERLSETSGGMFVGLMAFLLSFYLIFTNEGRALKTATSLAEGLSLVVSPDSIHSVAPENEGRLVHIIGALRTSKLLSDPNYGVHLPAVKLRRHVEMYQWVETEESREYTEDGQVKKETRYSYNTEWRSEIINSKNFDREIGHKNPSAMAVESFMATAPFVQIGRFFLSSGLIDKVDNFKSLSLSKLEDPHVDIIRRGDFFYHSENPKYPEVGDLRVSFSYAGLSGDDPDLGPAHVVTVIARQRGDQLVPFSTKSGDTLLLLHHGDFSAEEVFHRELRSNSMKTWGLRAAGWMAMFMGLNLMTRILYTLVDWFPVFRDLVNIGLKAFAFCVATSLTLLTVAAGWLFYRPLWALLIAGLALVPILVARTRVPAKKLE
UniProt Q96B49: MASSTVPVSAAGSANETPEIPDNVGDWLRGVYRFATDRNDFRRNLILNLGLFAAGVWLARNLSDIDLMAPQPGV
UniProt Q13472: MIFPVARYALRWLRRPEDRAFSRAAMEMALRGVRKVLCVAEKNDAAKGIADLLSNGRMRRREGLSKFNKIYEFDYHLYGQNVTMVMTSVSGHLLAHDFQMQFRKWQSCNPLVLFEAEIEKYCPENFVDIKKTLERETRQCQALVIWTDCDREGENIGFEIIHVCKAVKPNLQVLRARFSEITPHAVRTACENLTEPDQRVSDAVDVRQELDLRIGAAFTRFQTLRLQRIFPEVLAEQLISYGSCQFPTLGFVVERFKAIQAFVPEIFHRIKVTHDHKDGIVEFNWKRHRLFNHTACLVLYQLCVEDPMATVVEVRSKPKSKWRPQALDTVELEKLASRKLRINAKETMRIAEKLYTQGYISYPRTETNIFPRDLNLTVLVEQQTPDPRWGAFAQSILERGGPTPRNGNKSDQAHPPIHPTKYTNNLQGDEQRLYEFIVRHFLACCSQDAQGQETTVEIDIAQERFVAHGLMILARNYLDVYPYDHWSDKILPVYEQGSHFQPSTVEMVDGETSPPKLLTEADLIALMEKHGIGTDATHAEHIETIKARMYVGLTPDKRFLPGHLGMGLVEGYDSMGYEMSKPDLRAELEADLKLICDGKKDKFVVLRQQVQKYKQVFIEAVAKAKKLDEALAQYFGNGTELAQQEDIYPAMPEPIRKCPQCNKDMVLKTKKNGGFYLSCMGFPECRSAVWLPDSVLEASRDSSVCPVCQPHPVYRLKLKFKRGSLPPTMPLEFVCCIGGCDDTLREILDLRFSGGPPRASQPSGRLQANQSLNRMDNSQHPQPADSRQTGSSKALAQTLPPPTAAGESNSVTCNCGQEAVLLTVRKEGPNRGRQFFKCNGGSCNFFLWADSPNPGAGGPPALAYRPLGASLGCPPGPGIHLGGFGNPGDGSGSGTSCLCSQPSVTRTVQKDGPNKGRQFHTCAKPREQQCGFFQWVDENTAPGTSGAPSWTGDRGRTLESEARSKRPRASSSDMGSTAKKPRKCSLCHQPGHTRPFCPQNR
UniProt Q5BJF2, whole entry, looked up: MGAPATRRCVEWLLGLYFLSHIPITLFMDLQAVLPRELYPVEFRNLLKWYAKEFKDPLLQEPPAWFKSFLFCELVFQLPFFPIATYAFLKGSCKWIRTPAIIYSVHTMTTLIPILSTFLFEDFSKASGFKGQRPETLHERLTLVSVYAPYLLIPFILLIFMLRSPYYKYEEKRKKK
UniProt Q9BUB7: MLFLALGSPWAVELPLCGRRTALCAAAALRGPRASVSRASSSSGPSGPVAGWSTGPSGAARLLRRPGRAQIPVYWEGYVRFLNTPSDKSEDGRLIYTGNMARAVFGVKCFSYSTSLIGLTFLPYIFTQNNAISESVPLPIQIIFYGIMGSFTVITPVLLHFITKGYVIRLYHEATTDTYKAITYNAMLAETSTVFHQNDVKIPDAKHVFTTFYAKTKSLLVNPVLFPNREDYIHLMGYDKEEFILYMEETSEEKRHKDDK
UniProt Q8NCS4: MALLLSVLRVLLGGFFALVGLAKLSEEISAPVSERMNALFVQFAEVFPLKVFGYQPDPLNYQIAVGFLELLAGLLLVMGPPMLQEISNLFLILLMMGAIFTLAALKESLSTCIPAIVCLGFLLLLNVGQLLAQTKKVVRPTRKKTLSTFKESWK
UniProt Q8N2U0: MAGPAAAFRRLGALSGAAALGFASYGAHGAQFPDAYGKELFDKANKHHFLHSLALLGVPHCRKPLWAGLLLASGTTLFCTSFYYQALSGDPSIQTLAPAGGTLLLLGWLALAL
UniProt Q9NWD8: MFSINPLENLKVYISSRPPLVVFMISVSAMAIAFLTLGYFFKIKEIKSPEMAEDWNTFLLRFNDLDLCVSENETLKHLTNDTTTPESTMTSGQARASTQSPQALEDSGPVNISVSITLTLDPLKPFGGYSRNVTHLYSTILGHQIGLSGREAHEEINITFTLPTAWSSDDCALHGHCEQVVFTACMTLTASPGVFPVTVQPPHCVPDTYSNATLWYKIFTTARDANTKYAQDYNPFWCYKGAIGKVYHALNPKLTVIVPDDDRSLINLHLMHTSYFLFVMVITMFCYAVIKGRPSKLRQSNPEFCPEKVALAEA
UniProt Q9Y2Y6: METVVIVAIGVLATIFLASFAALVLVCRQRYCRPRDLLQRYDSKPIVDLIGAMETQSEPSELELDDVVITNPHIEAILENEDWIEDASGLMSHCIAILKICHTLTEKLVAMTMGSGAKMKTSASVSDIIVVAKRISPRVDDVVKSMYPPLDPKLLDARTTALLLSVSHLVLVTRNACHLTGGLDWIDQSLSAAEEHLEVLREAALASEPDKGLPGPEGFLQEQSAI

How the values were obtained:
Experiment in all cases: log2 fold change, soluble protein after heating vs DMSO (PISA); higher = thermal stabilisation; K562 lysate, 10 uM; active = over 0.2 and 3.5 SD of the protein, either way, in both replicates (recomputed)
[1] = compound: C1=CC=C(C=C1)[C@H](COC2=CC3=C(C=C2)NC(=O)N3)NC(=O)C4=CC=CN(C4=O)CC5=CC(=C(C=C5)F)F
Outline: (§1)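 Log-two fold change in thermal stability relative to solvent controls is reported from duplicates. For each sample, crude K562 extract from dounce-homogenised pellets in PBS pH 7.4 with 1 mM MgCl2, at 1 mg/mL protein, was treated with 10 μM compound for 30 min. Aliquots heated for 3 min across 48°C-58°C were pooled, brought to 0.5% NP-40 at 4°C and cleared at 21,000xg for 90 min. The supernatant was quantified by TMTpro 16plex LC-MS/MS with channel sums equalised.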

[2] = compound: CC1=C(SC2=C1C(=N[C@H](C3=NN=C(N32)C)CC(=O)N)C4=CC=C(C=C4)Cl)C
Outline: as §1

[3] = compound: CC1=C2C(=CC=C1)N=C(N(C2=O)C3=CC=CC=C3C)CN4C=NC5=C(N=CN=C54)N
Outline: as §1

[4] = compound: Cc1sc2c(c1C)C(c1ccc(Cl)cc1)=N[C@@H](CC(=O)OC(C)(C)C)c1nnc(C)n1-2
Outline: as §1

[5] = compound: c1ccc([C@@H]2C[C@H]2NC2CCNCC2)cc1
Outline: as §1

Measured: log2 fold change

TNKS1BP1 (UniProt Q9C0C2)
inactive: [1] 0.028 | [2] 0.008 | [3] -0.004 | [4] -0.033 | [5] -0.03

TMEM9 (UniProt Q9P0T7)
inactive: [1] 0.028 | [2] -0.036 | [3] 0.004 | [4] 0.004 | [5] 0.075

TOP2A isoform 4 (UniProt P11388)
inactive: [1] -0.008 | [2] -0.008 | [3] 0.045 | [4] -0.033 | [5] -0.041

TOX4 (UniProt O94842)
inactive: [1] -0.011 | [2] 0.001 | [3] -0.021 | [4] -0.019 | [5] -0.146

TOR1B (UniProt O14657)
inactive: [1] -0.003 | [2] 0.003 | [3] 0.066 | [4] 0.053 | [5] -0.022

TP53BP2 isoform 3 (UniProt Q13625)
inactive: [1] -0.006 | [2] -0.017 | [3] 0.014 | [4] 0.003 | [5] 0.099

TMX1 (UniProt Q9H3N1)
inactive: [1] -0.04 | [2] 0.017 | [3] 0.016 | [4] 0.033 | [5] 0.004

TPMT (UniProt P51580)
inactive: [1] 0.011 | [2] -0.013 | [3] 0.016 | [4] -0.008 | [5] 0.006

TPP2 (UniProt P29144)
inactive: [1] 0.006 | [2] 0.008 | [3] -0.002 | [4] 0.039 | [5] 0.025

TOM1 isoform 2 (UniProt O60784)
inactive: [1] 0.041 | [2] 0.047 | [3] -0.005 | [4] 0.012 | [5] 0.07

TPK1 (UniProt Q9H3S4)
inactive: [1] -0.173 | [2] 0.036 | [3] 0.027 | [4] 0.017 | [5] 0.01

TMEM263 (UniProt Q8WUH6)
inactive: [1] -0.286 | [2] -0.048 | [3] 0.211 | [4] -0.138 | [5] -0.073

TOR4A (UniProt Q9NXH8)
inactive: [1] 0.01 | [2] 0.016 | [3] -0.001 | [4] -0.039 | [5] 0.018

TNNI3K isoform 1 (UniProt Q59H18)
inactive: [1] -0.037 | [2] 0.019 | [3] 0.026 | [4] 0.03 | [5] -0.008

TPI1 (UniProt P60174)
inactive: [1] -0.015 | [2] -0.004 | [3] -0.038 | [4] -0.033 | [5] -0.039

TPR (UniProt P12270)
inactive: [1] 0.034 | [2] -0.012 | [3] -0.012 | [4] -0.005 | [5] 0.007

TOMM7 (UniProt Q9P0U1)
inactive: [1] 0.038 | [2] -0.025 | [3] -0.001 | [4] 0.017 | [5] -0.036

TRADD (UniProt Q15628)
inactive: [1] -0.051 | [2] -0.016 | [3] 0.112 | [4] 0.05 | [5] 0.033

TOPBP1 (UniProt Q92547)
inactive: [1] 0.012 | [2] 0.001 | [3] 0.026 | [4] -0.016 | [5] 0.099

TMOD3 (UniProt Q9NYL9)
inactive: [1] 0.042 | [2] 0.012 | [3] -0.027 | [4] -0.034 | [5] -0.007

TMOD1 (UniProt P28289)
inactive: [1] -0.003 | [2] 0.021 | [3] 0.043 | [4] 0.017 | [5] 0.002

TOM1L2 (UniProt Q6ZVM7)
inactive: [1] 0.073 | [2] -0.111 | [3] -0.017 | [4] -0.065 | [5] 0.026

TRA2A (UniProt Q13595)
inactive: [1] -0.076 | [2] 0.065 | [3] 0.034 | [4] -0.054 | [5] 0.004

TMSB10 (UniProt P63313)
inactive: [1] 0.022 | [2] -0.018 | [3] -0.077 | [4] 0.167 | [5] 0.085

TNIK isoform 4 (UniProt Q9UKE5)
inactive: [1] 0.015 | [2] -0.002 | [3] -0.017 | [4] -0.032 | [5] -0.076

TMEM199 (UniProt Q8N511)
inactive: [1] 0.005 | [2] -0.002 | [3] 0.07 | [4] -0.046 | [5] -0.029

TNPO1 (UniProt Q92973)
inactive: [1] -0.007 | [2] 0.012 | [3] 0.011 | [4] -0.029 | [5] 0.072

TMPO (UniProt P42167)
inactive: [1] -0.017 | [2] 0.044 | [3] -0.042 | [4] 0.042 | [5] -0.023

TP53RK (UniProt Q96S44)
inactive: [1] 0.013 | [2] 0.021 | [3] -0.003 | [4] 0.073 | [5] 0.09

TOR3A (UniProt Q9H497)
inactive: [1] -0.009 | [2] -0.025 | [3] 0.013 | [4] 0.018 | [5] -0.008

TMEM43 (UniProt Q9BTV4)
inactive: [1] 0.045 | [2] 0.006 | [3] 0.026 | [4] 0.003 | [5] -0.052

TOMM22 (UniProt Q9NS69)
inactive: [1] 0.044 | [2] -0.012 | [3] 0.003 | [4] -0.043 | [5] 0.004

TMEM189-UBE2V1 (UniProt I3L0A0)
inactive: [1] 0.001 | [2] -0.036 | [3] 0.014 | [4] -0.048 | [5] -0.041

TMEM87A (UniProt Q8NBN3)
inactive: [1] 0.066 | [2] -0.014 | [3] -0.011 | [4] -0.011 | [5] -0.128

TPM4 (UniProt P67936)
inactive: [1] -0.003 | [2] 0.057 | [3] -0.021 | [4] -0.025 | [5] -0.04

TOMM6 (UniProt Q96B49)
inactive: [1] -0.261 | [2] 0.026 | [3] 0.081 | [4] -0.134 | [5] 0.184

TOP3A (UniProt Q13472)
inactive: [1] 0.08 | [2] -0.012 | [3] 0.009 | [4] 0.028 | [5] 0.055

TMEM97 (UniProt Q5BJF2)
inactive: [1] 0.048 | [2] 0.015 | [3] -0.016 | [4] -0.081 | [5] -0.153

TMEM70 (UniProt Q9BUB7)
inactive: [1] -0.029 | [2] 0.045 | [3] 0.021 | [4] 0.013 | [5] -0.083

TP53I3 (UniProt Q53FA7)
inactive: [1] 0.039 | [2] -0.019 | [3] -0.05 | [4] 0.013 | [5] -0.045

TNRC6B (UniProt Q9UPQ9)
inactive: [1] -0.044 | [2] -0.02 | [3] -0.019 | [4] -0.003 | [5] -0.041

TMUB1 (UniProt Q9BVT8)
inactive: [1] -0.037 | [2] 0.003 | [3] 0.082 | [4] -0.007 | [5] 0.152

Fetched one by one from the list above, two records:
TMUB1 (UniProt Q9BVT8)
inactive: [1] -0.037 | [2] 0.003 | [3] 0.082 | [4] -0.007 | [5] 0.152

TP53I3 (UniProt Q53FA7)
inactive: [1] 0.039 | [2] -0.019 | [3] -0.05 | [4] 0.013 | [5] -0.045

(listing goes on)

TOMM40 (UniProt O96008)
inactive: [1] 0.006 | [2] 0 | [3] -0.025 | [4] -0.006 | [5] -0.037

TNFAIP1 (UniProt Q13829)
inactive: [1] -0.125 | [2] 0.18 | [5] 0.159

TMSB4X (UniProt P62328)
inactive: [2] 0.434 | [5] 0.176
active: [1] -0.935

TMEM35B (UniProt Q8NCS4)
inactive: [3] -0.246

TMEM208 (UniProt Q9BTX3)
inactive: [1] -0.084 | [2] -0.004 | [4] -0.125 | [5] -0.157

TMEM256 (UniProt Q8N2U0)
inactive: [3] 0.083 | [4] -0.074

TNRC6C isoform 2 (UniProt Q9HCJ0)
inactive: [1] 0.249 | [2] -0.029 | [4] -0.099 | [5] 0.069

TNFSF9 (UniProt P41273)
inactive: [5] -0.18

TMEM248 (UniProt Q9NWD8)
inactive: [3] -0.027 | [4] 0.054 | [5] 0.06

TMTC4 isoform 3 (UniProt Q5T4D3)
inactive: [4] -0.004

TNFAIP3 (UniProt P21580)
inactive: [1] 0.052 | [2] 0.05 | [4] 0.033 | [5] 0.06

TMEM98 (UniProt Q9Y2Y6)
inactive: [5] -0.008

TMEM237 isoform 3 (UniProt Q96Q45)
inactive: [3] 0.126 | [4] -0.052 | [5] -0.151

TMEM268 isoform 3 (UniProt Q5VZI3)
inactive: [4] 0.042 | [5] -0.116

TNK2 isoform 3 (UniProt Q07912)
inactive: [1] -0.146 | [2] 0.295 | [5] 0.079

TNIK isoform 5 (UniProt Q9UKE5)
inactive: [1] 0.008 | [2] -0.009 | [4] -0.089 | [5] -0.041
